What all share (assay): glycan array binding signal (z-score within array); higher = stronger binding
Holding throughout (conditions): glycan notation: IUPAC condensed, linker removed; mutation: D21K

Test [1] addresses Neu5Gc(a2-8)Neu5Gc(a2-3)Gal(b1-4)GlcNAc(b1-3)Gal(b1-4)GlcNAc. A digest of the protocol: (§1)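 Negative Z-scores can be read as non-binding. The Z-score is calculated within each array and then averaged across arrays of one protein sequence at different concentrations or buffers and across linkers. Arrays, 3228 in all, were curated from the Consortium for Functional Glycomics database and kept only where the protein sequence was available.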

The target in test [2] is Neu5Gc(a2-8)Neu5Gc(a2-6)Gal(b1-4)GlcNAc. A digest of the protocol: as §1
Test [3] deals with Neu5Gc(b2-6)Gal(b1-4)GlcNAc. A digest of the protocol:
as §1

Experimental findings from the supplement of paper PMC8728848 are described below.

The list shows a part of the results.

B1: C7A (Sus scrofa) (peptide)
chain: KILRGVCKKIMRTFLRRISKKILTGKK
As to B1, the “glycan array binding signal (z-score)” value in test [1] is -0.229; in test [2] it was -3.08; in test [3], 0.66.
